Reference: PubChem BioAssay AID488837 (National Center for Advancing Translational Sciences (NCATS), 2010)
About 20 (0.006%) of roughly 330,000 compounds were called active. The shares of active, inactive and inconclusive entries below differ from those in the screen. Calls follow the shape of the dose curve; as a rule, active = well fitted inhibition curve with a large enough effect; inconclusive = small, poorly fitted or top-dose-only effect, or effect the other way; inactive = flat fitted curve, though single readings scatter. Potencies beside an inconclusive call are fits to weak or partial responses and may not hold up.

By UniProt entry, the sequences of proteins in these tests, tags left out. Where a name states a change or a piece, a line headed by the entry shows the natural chain unless it says otherwise.
UniProt O00167: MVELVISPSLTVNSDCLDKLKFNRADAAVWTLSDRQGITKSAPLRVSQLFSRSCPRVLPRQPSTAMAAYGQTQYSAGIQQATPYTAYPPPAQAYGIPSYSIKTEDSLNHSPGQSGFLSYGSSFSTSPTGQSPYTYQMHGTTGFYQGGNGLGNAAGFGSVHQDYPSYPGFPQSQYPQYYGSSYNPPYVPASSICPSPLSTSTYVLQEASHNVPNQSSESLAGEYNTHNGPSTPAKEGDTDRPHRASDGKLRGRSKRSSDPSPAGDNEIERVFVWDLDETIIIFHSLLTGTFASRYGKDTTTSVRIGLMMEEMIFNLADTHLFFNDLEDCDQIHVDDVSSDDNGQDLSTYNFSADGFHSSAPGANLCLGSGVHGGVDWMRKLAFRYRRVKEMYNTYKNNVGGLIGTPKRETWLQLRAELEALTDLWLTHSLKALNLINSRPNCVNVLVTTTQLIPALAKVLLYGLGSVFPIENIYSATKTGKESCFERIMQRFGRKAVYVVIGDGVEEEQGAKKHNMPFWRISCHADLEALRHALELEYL

What follows are compounds tested against Protein phosphatase EYA2 (Homo sapiens) (UniProt O00167) (assay: qHTS Assay for Inhibitors of the Phosphatase Activity of Eya2). Conditions: recombinant Eya2, OMFP fluorescence dephosphorylation (OMFP is methylfluorescein phosphate).
Method in brief: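 Eya2 (0.2 uM) preincubated 10 min at ambient with compound, then OMFP substrate added at 50 uM; 10 min reaction in 50 mM HEPES pH 7.5, 50 mM NaCl, 5 uM MgCl2, 0.05% BSA, 1 mM DTT. Fluorescence read at Ex 485/Em 525 nm.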
Potency is read from the fitted curve at half-maximal effect.

| SMILES | Potency |
| --- | --- |
| Cc1nn(C)c2ncc(C(N)=O)c(Oc3cccnc3)c12 | inconclusive: 89.1 µM [inhibitor, single point] |
| CCc1nc(NCCO)c(C#N)c2c1CCCC2 | inconclusive: 100 µM [inhibitor, single point] |
| O=C(CN1CCN(c2ccccn2)CC1)Nc1cccc(Br)c1 | inconclusive: 100 µM [inhibitor, single point] |
| N#C/C(=C(/O)CN1CCCC1)c1nc(-c2ccccc2)cs1 | inconclusive: 79.4 µM [inhibitor, partial curve, poor fit] |
| COC(=O)C1=C2SCC(=O)N2C(N)=C(C#N)C1 | inconclusive: 35.5 µM [inhibitor, partial curve, poor fit] |
| CSc1nc2cc(C)nn2c(-c2ccccc2)c1C#N | inconclusive: 100 µM [inhibitor, single point] |
| O=C(CCCCCn1c(=S)[nH]c2ccc(N3CCOCC3)cc2c1=O)NCc1ccccc1Cl | inconclusive: 100 µM [inhibitor, single point] |
| COc1ccc(-c2noc(N3CCC(C(=O)N(C)c4ccccc4)CC3)n2)cc1 | inconclusive: 70.8 µM [inhibitor, partial curve, poor fit] |
| CN1C2CCC1CC(NC(=O)c1cc(Cl)cc3[nH]cnc13)C2 (stereo not drawn) | inconclusive: 178 µM [inhibitor, single point] |
| O=C(O)c1ccc2c(c1)C1C=CCC1C(c1cc3c(cc1Br)OCO3)N2 (stereo not drawn) | inactive |
| CCOC(=O)C1(Cc2cccc(Cl)c2)CCCN(C(=O)C2CC2)C1 (stereo not drawn) | inconclusive: 20 µM [inhibitor, single point] |
| Cc1ccc(N2CC(C(=O)N3CCOCC3)CC2=O)cc1C (stereo not drawn) | inconclusive: 28.2 µM [inhibitor, single point] |
| CC1=C(C(=O)NC(C)CCc2ccccc2)C2(CCC(C)CC2)OC1=O (stereo not drawn) | inconclusive: 200 µM [inhibitor, partial curve] |
| Cc1cc(C)c(C(N)=O)c(Nc2ccc(F)cc2)n1 | inconclusive: 141 µM [inhibitor, single point] |
| COC(=O)c1ccccc1NC(=S)NC(=O)c1ccccc1C | inactive |
| O=C(c1ccc(OC2CCN(C(=O)C3CC3)CC2)cc1)N(CCO)Cc1ccccc1 | inconclusive: 100 µM [inhibitor, single point] |
| COc1ccc(Cl)cc1/C=C/c1ccc2cccc(O)c2n1 | inconclusive: 20 µM [inhibitor, single point] |
| COc1ccc(-n2nc3c(c2NC(=O)c2ccccc2S(=O)(=O)C(F)F)CS(=O)(=O)C3)cc1 | inactive |
| O=C(O)c1cccc(Nc2ncnc3ccc(Br)cc23)c1 | inconclusive: 112 µM [inhibitor, single point] |
| CCCC1(c2ccccc2)NC(=O)N(CC(=O)Nc2cc(S(=O)(=O)N3CCOCC3)ccc2Cl)C1=O (stereo not drawn) | inactive |
| Cc1cc(N=NC(=O)c2ccccc2O)c2ccccc2c1O | inactive |
| CCC(C)[C@H](NC(=O)N1CCC(C)CC1)C(=O)O (stereo partly drawn) | inconclusive: 100 µM [inhibitor, single point] |

Three of the compounds above, bar-delimited:
SMILES | Potency
Cc1nn(C)c2ncc(C(N)=O)c(Oc3cccnc3)c12 | inconclusive: 89.1 µM [inhibitor, single point]
CCc1nc(NCCO)c(C#N)c2c1CCCC2 | inconclusive: 100 µM [inhibitor, single point]
O=C(CN1CCN(c2ccccn2)CC1)Nc1cccc(Br)c1 | inconclusive: 100 µM [inhibitor, single point]

The list goes on.

| SMILES | Potency |
| --- | --- |
| COc1ccc(C(=O)OCn2nnc3ccccc3c2=O)cc1[N+](=O)[O-] | inconclusive: 22.4 µM [inhibitor, single point] |
| Cc1cccc(OCC(=O)N(Cc2ccco2)C2CCS(=O)(=O)C2)c1 (stereo not drawn) | inconclusive: 22.4 µM [inhibitor, single point] |
| CC(=O)N1CCN(Cc2nc3cc(NC(=O)c4cccc(Br)c4)ccc3n2C)CC1 | inconclusive: 100 µM [inhibitor, partial curve, poor fit] |
| O=S(=O)(c1ccccc1)N1CCN(c2nnc(-c3ccccc3)c3ccccc23)CC1 | inconclusive: 70.8 µM [inhibitor, partial curve, poor fit] |
| Cc1cccc(N2CCN(Cc3ccc(Br)o3)CC2)c1C | inconclusive: 25.1 µM [inhibitor, single point] |
| O=S(=O)(Nc1nc(SCc2ccc(Cl)cc2)n[nH]1)c1ccc(F)cc1 | inactive |
| O=C(CN1C(=O)COc2ccccc21)NCCN1CCOCC1 | inactive |
| Cc1ccc(NC(=O)Nc2nnc(-c3ccccc3)o2)cc1 | inactive |
| Cc1ccc(CCNC(=O)c2cc(C)nn2-c2ccccc2)cc1 | inconclusive: 15.8 µM [inhibitor, partial curve, poor fit] |
| CCn1c(=O)c([N+](=O)[O-])c(N2CCN(Cc3ccc4c(c3)OCO4)CC2)c2ccccc21 | inconclusive: 112 µM [inhibitor, single point] |
| N#C[C@@H]1[C@@H]2C(=O)N(c3ccc4c(c3)OCCO4)C(=O)[C@@H]2C2c3ccccc3C=CN21 (stereo partly drawn) | inactive |
| O=C(NCN1CCN(c2ccccc2)CC1)c1cnccn1 | inconclusive: 20 µM [inhibitor, single point] |
| O=C(N/N=C/c1ccc([N+](=O)[O-])cc1)c1cccs1 | inactive |
| COc1ccccc1NC(=O)COC(=O)c1c(C)nn(-c2ccccc2)c1C | inconclusive: 178 µM [inhibitor, partial curve] |
| O=C(Nc1ccccc1OC(F)F)c1ccc(-n2cncn2)c([N+](=O)[O-])c1 | inconclusive: 15.8 µM [inhibitor, single point] |
| COC(=O)CCCC1=CC2=C(c3ccccc3)C(=O)C(C)(OC(=O)C3CCCC3)C(=O)C2=CN1C(CO)CO (stereo not drawn) | inconclusive: 100 µM [inhibitor, single point] |
| CCN(CC)c1ccc(N=CN2CCOCC2)cc1 | inconclusive: 22.4 µM [inhibitor, single point] |
| CCc1ccc(-n2c(C)cc(/C=N/NC(=O)c3ccncc3)c2C)cc1 | inconclusive: 28.2 µM [inhibitor, single point] |
| C/C(=N\NC(=O)Cc1ccc(Cl)cc1)c1cccc(NC(=O)c2cccnc2)c1 | inactive |
| O=C1NN=C(c2ccc(Br)cc2)CC1c1ccc(Cl)cc1 (stereo not drawn) | inconclusive: 1260 µM [inhibitor, partial curve, poor fit] |
| Cn1c(=O)[nH]c2ncccc21 | inconclusive: 15.8 µM [inhibitor, single point] |
